Consider one substance from article PMC11143359 (2024).

Sequences of proteins named here, by UniProt entry; tags and fusion partners are left off. Residues count along the entry.
UniProt Q61790, residues 24-521: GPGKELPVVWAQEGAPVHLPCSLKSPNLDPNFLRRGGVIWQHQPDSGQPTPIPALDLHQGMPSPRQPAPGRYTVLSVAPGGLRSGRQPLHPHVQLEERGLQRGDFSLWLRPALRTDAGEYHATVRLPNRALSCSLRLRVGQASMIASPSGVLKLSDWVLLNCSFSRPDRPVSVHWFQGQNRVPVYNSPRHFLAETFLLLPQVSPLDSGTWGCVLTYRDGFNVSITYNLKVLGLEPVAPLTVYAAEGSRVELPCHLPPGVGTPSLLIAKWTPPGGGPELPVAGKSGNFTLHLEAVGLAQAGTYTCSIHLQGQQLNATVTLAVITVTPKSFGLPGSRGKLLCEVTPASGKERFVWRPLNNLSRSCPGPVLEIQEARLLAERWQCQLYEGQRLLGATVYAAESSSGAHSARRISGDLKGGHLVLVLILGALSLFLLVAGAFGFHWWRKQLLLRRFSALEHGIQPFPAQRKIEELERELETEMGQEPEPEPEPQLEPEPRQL

The target in the assay is T1, FLAG-Aplp1, full-length (FL), in HEK293FT cells (UniProt Q03157).
T1 sequence: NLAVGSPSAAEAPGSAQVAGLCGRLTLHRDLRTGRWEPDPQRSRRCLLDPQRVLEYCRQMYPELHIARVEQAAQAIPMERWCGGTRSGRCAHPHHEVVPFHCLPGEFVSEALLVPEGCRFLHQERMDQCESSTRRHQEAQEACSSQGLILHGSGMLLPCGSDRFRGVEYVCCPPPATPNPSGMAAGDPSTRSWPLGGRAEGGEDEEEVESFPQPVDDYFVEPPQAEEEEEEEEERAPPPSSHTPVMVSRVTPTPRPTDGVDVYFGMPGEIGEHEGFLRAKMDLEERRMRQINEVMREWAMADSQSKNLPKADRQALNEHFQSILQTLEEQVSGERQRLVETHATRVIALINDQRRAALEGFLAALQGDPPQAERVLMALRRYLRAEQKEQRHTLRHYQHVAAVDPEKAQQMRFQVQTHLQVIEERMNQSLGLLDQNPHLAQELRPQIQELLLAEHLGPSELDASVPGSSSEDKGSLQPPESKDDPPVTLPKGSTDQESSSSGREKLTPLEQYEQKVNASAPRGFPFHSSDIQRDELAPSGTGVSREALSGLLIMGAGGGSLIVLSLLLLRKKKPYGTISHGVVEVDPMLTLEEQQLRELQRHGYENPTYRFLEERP
As to the kind of experiment: co-IP; HEK293FT cells transfected with FLAG-Aplp1 (or human FLAG-APLP1) and Lag3-Myc, full length or mutants; 50 mM Tris pH 8.0, 150 mM NaCl, 1% Triton X-100; anti-Myc on Protein G Dynabeads or FLAG M2 magnetic beads; in some panels 410C9, mIgG or α-syn PFF added.

These are yes or no findings as the source states them, for the method shown. Binding seen in cells or lysates may run through a third protein. Some entries that bind do so weakly or less than the wild type. Where a sequence is shown, tags or fusion partners need not be part of it.

Take “Lag3-Myc, full-length (FL), in HEK293FT cells (from UniProt Q61790 24-521) (receptor)”: the binding result is “binds”.
